Results of single-concentration screens

Protein sequences, listed by entry. Tags and fused reporters are not part of them. Residues count along the entry.
UniProt I6X8D2, whole entry: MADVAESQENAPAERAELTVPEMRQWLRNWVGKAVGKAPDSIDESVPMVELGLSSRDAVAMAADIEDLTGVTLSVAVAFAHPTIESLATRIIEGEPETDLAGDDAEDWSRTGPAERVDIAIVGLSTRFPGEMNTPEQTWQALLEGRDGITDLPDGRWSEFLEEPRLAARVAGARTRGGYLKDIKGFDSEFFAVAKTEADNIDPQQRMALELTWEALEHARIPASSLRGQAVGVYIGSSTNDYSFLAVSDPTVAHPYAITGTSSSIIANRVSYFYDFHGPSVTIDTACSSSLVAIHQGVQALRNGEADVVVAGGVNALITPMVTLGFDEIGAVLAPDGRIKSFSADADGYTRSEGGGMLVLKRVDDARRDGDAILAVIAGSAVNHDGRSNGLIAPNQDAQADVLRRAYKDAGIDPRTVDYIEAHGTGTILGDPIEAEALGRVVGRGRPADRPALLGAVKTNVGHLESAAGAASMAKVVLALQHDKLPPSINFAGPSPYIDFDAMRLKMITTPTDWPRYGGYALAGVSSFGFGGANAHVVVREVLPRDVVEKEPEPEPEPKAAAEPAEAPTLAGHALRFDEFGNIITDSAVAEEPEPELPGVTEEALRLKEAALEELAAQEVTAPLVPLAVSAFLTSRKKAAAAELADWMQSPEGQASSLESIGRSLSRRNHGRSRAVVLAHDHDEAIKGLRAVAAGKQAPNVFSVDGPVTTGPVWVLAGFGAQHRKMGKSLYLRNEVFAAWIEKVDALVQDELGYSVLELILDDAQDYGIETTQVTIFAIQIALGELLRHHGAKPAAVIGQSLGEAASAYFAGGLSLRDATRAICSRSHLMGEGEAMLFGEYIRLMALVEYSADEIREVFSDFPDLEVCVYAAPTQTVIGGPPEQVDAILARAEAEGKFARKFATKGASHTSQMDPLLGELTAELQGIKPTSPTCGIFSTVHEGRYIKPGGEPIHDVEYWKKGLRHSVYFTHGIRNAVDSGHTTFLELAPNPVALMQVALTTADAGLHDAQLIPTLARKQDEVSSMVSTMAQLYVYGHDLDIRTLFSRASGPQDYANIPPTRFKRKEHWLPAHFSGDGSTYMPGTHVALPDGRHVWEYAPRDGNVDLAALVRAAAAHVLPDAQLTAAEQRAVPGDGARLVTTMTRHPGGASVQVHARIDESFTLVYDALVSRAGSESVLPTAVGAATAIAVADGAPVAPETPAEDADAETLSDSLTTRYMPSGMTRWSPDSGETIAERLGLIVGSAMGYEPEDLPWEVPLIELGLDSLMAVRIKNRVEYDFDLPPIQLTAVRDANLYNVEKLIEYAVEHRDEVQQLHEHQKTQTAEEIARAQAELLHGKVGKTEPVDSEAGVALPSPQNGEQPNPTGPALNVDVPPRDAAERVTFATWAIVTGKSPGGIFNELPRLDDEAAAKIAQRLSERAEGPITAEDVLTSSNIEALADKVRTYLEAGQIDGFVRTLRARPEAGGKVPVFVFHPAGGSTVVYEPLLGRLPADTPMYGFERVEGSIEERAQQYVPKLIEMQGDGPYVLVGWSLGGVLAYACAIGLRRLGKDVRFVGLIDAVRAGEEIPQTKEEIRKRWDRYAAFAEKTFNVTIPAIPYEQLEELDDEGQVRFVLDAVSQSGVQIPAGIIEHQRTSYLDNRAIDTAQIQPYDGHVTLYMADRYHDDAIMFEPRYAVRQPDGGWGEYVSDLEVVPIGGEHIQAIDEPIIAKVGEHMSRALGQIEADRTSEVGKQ
UniProt P9WNZ1, whole entry: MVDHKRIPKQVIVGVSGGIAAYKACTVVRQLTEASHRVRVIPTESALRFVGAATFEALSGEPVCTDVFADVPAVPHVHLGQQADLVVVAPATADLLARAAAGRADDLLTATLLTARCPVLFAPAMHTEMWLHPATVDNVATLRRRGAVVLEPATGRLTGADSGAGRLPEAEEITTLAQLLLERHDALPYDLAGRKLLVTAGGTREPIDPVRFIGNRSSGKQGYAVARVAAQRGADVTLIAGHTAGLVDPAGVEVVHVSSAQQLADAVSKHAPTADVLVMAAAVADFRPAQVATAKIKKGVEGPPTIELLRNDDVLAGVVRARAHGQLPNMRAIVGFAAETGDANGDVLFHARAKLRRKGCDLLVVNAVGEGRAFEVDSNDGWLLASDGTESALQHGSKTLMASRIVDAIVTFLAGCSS
UniProt P9WFT3, whole entry: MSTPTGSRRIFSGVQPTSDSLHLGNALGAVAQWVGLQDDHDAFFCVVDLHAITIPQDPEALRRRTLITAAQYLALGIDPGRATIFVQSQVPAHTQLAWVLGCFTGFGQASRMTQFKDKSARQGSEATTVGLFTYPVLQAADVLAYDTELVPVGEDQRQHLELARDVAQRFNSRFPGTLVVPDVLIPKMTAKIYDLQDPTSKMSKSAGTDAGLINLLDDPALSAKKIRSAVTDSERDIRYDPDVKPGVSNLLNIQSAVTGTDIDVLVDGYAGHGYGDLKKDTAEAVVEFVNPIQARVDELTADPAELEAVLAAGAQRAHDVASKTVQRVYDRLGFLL
UniProt A4I591, 1-473: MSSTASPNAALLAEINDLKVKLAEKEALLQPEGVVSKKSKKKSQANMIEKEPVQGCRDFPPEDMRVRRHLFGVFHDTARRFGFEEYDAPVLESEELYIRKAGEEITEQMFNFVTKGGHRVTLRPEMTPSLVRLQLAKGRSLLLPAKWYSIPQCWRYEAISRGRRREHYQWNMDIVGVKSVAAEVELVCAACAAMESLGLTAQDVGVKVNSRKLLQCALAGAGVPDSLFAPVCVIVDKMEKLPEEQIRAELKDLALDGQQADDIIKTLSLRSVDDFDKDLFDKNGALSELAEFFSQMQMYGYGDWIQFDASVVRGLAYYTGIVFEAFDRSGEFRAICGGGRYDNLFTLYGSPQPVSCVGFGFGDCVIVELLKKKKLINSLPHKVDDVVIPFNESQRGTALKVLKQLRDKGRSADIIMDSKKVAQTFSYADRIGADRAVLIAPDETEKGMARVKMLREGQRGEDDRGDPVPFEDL
UniProt Q4DA54, 1-478: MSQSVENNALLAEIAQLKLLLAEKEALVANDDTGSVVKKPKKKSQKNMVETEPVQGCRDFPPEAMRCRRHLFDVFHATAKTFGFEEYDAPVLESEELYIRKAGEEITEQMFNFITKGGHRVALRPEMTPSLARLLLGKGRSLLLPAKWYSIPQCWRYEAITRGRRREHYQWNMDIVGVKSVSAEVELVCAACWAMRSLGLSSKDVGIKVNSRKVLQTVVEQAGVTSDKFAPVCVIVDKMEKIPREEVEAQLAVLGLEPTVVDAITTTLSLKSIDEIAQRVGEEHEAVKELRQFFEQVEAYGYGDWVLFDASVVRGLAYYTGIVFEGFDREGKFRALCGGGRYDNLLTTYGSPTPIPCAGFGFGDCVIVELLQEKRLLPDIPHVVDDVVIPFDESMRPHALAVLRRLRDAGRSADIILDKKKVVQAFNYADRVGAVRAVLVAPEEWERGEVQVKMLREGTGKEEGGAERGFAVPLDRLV

From ChEMBL document CHEMBL3988442, “University of Dundee, Small-Polar-MMV Screening Library” (2021).

Pks13 thioesterase: 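Polyketide synthase Pks13, Mycobacterium tuberculosis (UniProt I6X8D2). Enzyme assay of the thioesterase domain of polyketide synthase 13; the read-out is not stated. Tested at 30 µM. Higher reads as stronger inhibition (inferred from which compounds were picked for retests). About 67,000 compounds were tested under these conditions; 0.46% (about 300) showed 50% or more at least once.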
Toxoplasma: 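Assay of Toxoplasma gondii numbers, read through their beta-galactosidase reporter with a colour substrate. Tested at 10 µM. Higher reads as fewer parasites (inferred from which compounds were picked for retests). Of about 67,000 compounds tested this way, about 260 (0.38%) reached 50% or more in at least one test.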
CoaBC: 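Enzyme assay of CoaBC with a phosphate dye (Biomol Green) read at 650 nm. Target: Coenzyme A biosynthesis protein CoaBC, Mycobacterium tuberculosis (UniProt P9WNZ1). Compounds at 30 µM. Direction is inferred from only a few compounds that gave an IC50; most scored high, so higher reads as stronger inhibition. Most strong results did not repeat in a second test. Size under these conditions: about 67,000 compounds, about 40 of them at 50% or above in at least one test.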
MtTrpRS: 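Tryptophan-tRNA ligase, Mycobacterium tuberculosis (UniProt P9WFT3). Enzyme assay of tryptophanyl-tRNA synthetase; the read-out is not stated. Concentration: 10 µM. Direction is not recorded; retested compounds ran higher, which suggests that high means inhibition. About 65,000 compounds were tested under these conditions; 0.098% (about 64) showed 50% or more at least once.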
LiHisRS: 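Enzyme assay of histidyl-tRNA synthetase; the read-out is not stated. Target: Histidine-tRNA ligase, Leishmania infantum (UniProt A4I591). Concentration: 30 µM. Higher reads as stronger inhibition (inferred: compounds with an IC50 in retests scored well above the rest). The assay is labelled LdHisRS but filed under L. infantum. About 69,000 compounds were tested under these conditions; 0.6% (about 410) showed 50% or more at least once.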
TcHisRS: 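Histidine-tRNA ligase, Trypanosoma cruzi CL Brener (UniProt Q4DA54). Enzyme assay of histidyl-tRNA synthetase; the read-out is not stated. Concentration: 30 µM. Direction is inferred from retests: higher values go with stronger inhibition. Size under these conditions: about 69,000 compounds, about 31 of them at 50% or above in at least one test.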

Each number is a percent effect as filed. How 0% and 100% were set is not recorded. Most values in the screen are low, and negative values occur. Compounds were drawn at random from those tested, without regard to their results. A dash means the value is not listed here; it may have been measured.

CNC(=O)c1cccnc1NCc1ccc(Cn2ccnc2)cc1 read Pks13 thioesterase: 5.02%; Toxoplasma: 11.06%; CoaBC: 5.276%; MtTrpRS: -4.852%; LiHisRS: 7.843%; TcHisRS: 8.642%.
COc1ccc(Cc2nc3c([nH]2)CC(C)(C)CNC3=O)c(OC)c1 read Pks13 thioesterase: -9.112%; Toxoplasma: -2.143%; CoaBC: 3.398%; MtTrpRS: -1.098%; LiHisRS: 33.73%; TcHisRS: 3.867%.
CCCC(=O)N1CCC(Nc2ncc(Br)cn2)CC1 read Pks13 thioesterase: -13.59%; Toxoplasma: 26.91%; CoaBC: 3.182%; MtTrpRS: -1.338%; LiHisRS: 19.18%; TcHisRS: 9.189%.
CCN1CCC2(CC1)OCCN2C(=O)c1cc(Cl)c(OC)c(Cl)c1 read Pks13 thioesterase: 30.29%; CoaBC: 0.6053%; MtTrpRS: -0.7776%; LiHisRS: -1.087%; TcHisRS: 3.96%.
CCOCC1CN(C(=O)c2ccco2)Cc2nn(C)cc21 (centres undefined) read Pks13 thioesterase: -31.68%; Toxoplasma: 13.13%; CoaBC: 6.515%; MtTrpRS: 2.441%; LiHisRS: 22.86%; TcHisRS: 2.941%.
CC(C)NC(=O)NCCn1nc(C(F)(F)F)n(C)c1=O read Pks13 thioesterase: -8.543%; Toxoplasma: 6.652%; CoaBC: -4.37%; MtTrpRS: 3.127%; LiHisRS: 11.57%; TcHisRS: 3.061%.
CC(C)c1nnc(CCC(=O)N2CCOC(c3cnccn3)C2)o1 (centres undefined) read Pks13 thioesterase: 1.352%; Toxoplasma: -5.986%; CoaBC: -5.767%; MtTrpRS: -3.618%; LiHisRS: 5.674%; TcHisRS: 4.651%.
CC(c1nc(C2CC2)no1)N(C)Cc1ccc2c(c1)OCCO2 (centres undefined) read Toxoplasma: 8.245%; CoaBC: -1.831%; MtTrpRS: -1.474%; LiHisRS: 9.859%; TcHisRS: 7.182%.
CCN(CCNC(=O)c1cccnc1OCCOC)C1CC1 read Pks13 thioesterase: -15.28%; Toxoplasma: -6.001%; CoaBC: 8.075%; MtTrpRS: -3.928%; LiHisRS: 5.263%; TcHisRS: 2.006%.
Cl.O=C(C1CCCCC1)N1CC2(CCNCC2)C1 read Toxoplasma: -6.55%.
COCCC(=O)N1CCn2cc(CN3CCN(C)CC3)nc2C1.O=C(O)C(F)(F)F.O=C(O)C(F)(F)F read Toxoplasma: 8.005%.
Cc1cc(C(F)(F)F)nn1CCCNC(=O)C1CCCC1 read Pks13 thioesterase: -4.853%; Toxoplasma: -0.7952%; CoaBC: -11.46%; MtTrpRS: -2.346%; LiHisRS: 5.618%; TcHisRS: 4.663%.
Cc1ccc(S(=O)(=O)N2C[C@@H]3CCN[C@@H]3C2)cc1 read Pks13 thioesterase: -29.55%; CoaBC: 3.308%; MtTrpRS: -4.446%; LiHisRS: 17.48%; TcHisRS: 9.709%.
O=C(C(c1ccccc1)S(=O)(=O)c1ccccn1)N1CCCC1 (centres undefined) read Pks13 thioesterase: -11.62%; Toxoplasma: 27.44%; CoaBC: -3.125%; MtTrpRS: 0.2427%; LiHisRS: -34.83%; TcHisRS: 10.88%.
O=C(CC1CC1)N1C[C@@H]2CCN(c3cnccn3)C[C@@H]2C1 read Pks13 thioesterase: 2.628%; CoaBC: 4.353%; MtTrpRS: 1.908%; LiHisRS: 12.2%; TcHisRS: 7.519%.
CCc1noc(C)c1C(=O)NCc1ccccn1 read Pks13 thioesterase: -21.58%; Toxoplasma: 4.26%; CoaBC: -1.34%; MtTrpRS: -1.575%; LiHisRS: 24.73%; TcHisRS: 8.929%.
O=C(O)C(F)(F)F.[H][C@]12CCNCC[C@@]1([H])S(=O)(=O)CCN2C(=O)c1ccccc1 read Toxoplasma: -4.39%.
CCn1c(C)cc(C(=O)NCc2cccc(NS(C)(=O)=O)c2)c1C read Pks13 thioesterase: -2.807%; Toxoplasma: -12.7%; CoaBC: 10.68%; MtTrpRS: 19.77%; LiHisRS: 13.68%; TcHisRS: -0.5405%.
CC(C)Oc1ncccc1CNC(=O)c1ccccn1 read Pks13 thioesterase: 37.76%; Toxoplasma: 4.73%; CoaBC: 5.471%; MtTrpRS: -6.073%; LiHisRS: 6.14%; TcHisRS: -0.2907%.
CN(C)C(=O)CN1CCC2(CC1)CN(S(C)(=O)=O)Cc1ccccc1O2 read Pks13 thioesterase: 2.309%; Toxoplasma: 4.039%; CoaBC: -4.205%; MtTrpRS: -6.22%; LiHisRS: 5.797%; TcHisRS: 4.545%.
CC(C(=O)Nc1ccc(N2CCCC2)nc1)n1cccn1 (centres undefined) read Pks13 thioesterase: 30.79%; Toxoplasma: -23.64%; CoaBC: 3.07%; MtTrpRS: -0.4788%; LiHisRS: 7.143%; TcHisRS: 4.651%.
COCCN1CC[C@]2(CN(C(=O)c3ccc[nH]3)C[C@H]2C)C1=O read Pks13 thioesterase: 2.756%; Toxoplasma: 3.132%; CoaBC: -0.4878%; LiHisRS: -1.887%; TcHisRS: 0%.
COCCCNC(=O)Cn1c(-c2cccc(Cl)c2)nc(C)cc1=O read Pks13 thioesterase: -19.36%; Toxoplasma: 11.24%; CoaBC: -2.181%; MtTrpRS: 1.72%; LiHisRS: 14.16%; TcHisRS: 0%.
O=C(O)C(F)(F)F.[H][C@@]12CCN(C(=O)Cc3ccccc3)[C@@]1([H])CC(=O)N2Cc1cccnc1 read Toxoplasma: -15.94%.
CNS(=O)(=O)c1ccc(CN2CCN3CCNC(=O)C3C2)cc1 (centres undefined) read Pks13 thioesterase: 0.9282%; Toxoplasma: -8.737%; CoaBC: 3.071%; MtTrpRS: 1.067%; LiHisRS: 18.6%; TcHisRS: 7.143%.

Some entries from above, unchanged:

structure	Pks13 thioesterase	Toxoplasma	CoaBC	MtTrpRS	LiHisRS	TcHisRS
COc1ccc(Cc2nc3c([nH]2)CC(C)(C)CNC3=O)c(OC)c1	-9.112%	-2.143%	3.398%	-1.098%	33.73%	3.867%
CCN(CCNC(=O)c1cccnc1OCCOC)C1CC1	-15.28%	-6.001%	8.075%	-3.928%	5.263%	2.006%
Cc1ccc(S(=O)(=O)N2C[C@@H]3CCN[C@@H]3C2)cc1	-29.55%	-	3.308%	-4.446%	17.48%	9.709%